Data taken from the supplement of paper PMC12067093, “Discovery and optimisation of a covalent ligand for TRIM25 and its application to targeted protein ubiquitination” (Chemical Science, 2025).
Some of the results follow.

The chains behind the UniProt entries cited, without tags or fusion partners. Where a name states a change or a piece, a line headed by the entry shows the natural chain unless it says otherwise.
UniProt P05771, whole entry, looked up: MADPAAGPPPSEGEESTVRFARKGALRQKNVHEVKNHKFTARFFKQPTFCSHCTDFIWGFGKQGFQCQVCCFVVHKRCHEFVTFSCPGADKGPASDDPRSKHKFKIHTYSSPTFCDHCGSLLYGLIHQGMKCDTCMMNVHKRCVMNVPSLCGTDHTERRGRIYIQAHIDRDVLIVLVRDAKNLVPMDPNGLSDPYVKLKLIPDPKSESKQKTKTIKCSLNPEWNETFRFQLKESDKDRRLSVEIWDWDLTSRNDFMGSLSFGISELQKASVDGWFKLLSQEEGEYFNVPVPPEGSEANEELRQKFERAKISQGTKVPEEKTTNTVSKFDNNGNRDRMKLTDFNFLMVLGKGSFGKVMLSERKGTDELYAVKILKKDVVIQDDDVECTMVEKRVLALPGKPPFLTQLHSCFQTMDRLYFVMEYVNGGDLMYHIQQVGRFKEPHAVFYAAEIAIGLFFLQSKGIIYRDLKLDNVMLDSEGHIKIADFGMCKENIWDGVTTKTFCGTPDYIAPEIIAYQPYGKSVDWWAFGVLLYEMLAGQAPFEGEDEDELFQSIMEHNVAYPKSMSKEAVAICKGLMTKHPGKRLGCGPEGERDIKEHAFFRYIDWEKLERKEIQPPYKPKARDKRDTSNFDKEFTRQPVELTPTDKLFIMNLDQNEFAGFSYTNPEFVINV
UniProt Q9NVM4: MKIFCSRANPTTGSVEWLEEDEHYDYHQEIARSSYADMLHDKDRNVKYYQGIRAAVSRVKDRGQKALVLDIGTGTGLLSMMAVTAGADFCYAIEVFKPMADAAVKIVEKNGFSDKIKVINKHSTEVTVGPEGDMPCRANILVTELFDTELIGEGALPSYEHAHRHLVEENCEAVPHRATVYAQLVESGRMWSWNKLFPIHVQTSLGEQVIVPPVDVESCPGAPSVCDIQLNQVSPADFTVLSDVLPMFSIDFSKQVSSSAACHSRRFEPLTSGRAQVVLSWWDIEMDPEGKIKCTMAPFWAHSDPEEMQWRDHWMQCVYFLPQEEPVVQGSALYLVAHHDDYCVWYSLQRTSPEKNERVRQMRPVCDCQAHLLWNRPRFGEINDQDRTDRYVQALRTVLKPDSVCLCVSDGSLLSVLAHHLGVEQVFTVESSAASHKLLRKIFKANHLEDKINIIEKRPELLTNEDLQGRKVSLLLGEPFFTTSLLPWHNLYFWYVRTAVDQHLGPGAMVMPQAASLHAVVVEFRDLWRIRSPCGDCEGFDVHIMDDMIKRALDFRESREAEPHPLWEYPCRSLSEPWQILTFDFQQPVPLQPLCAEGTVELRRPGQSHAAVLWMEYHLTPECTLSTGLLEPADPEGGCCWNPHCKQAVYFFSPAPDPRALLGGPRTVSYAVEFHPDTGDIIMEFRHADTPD
UniProt O75569: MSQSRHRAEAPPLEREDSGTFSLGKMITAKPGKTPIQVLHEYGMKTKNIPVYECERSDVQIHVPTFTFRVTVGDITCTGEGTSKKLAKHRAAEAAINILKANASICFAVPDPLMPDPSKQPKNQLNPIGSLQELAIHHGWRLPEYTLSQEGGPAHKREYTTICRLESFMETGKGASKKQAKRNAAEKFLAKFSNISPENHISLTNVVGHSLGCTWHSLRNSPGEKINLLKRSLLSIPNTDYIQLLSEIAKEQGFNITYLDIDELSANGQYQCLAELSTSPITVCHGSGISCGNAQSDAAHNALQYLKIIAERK
UniProt Q04759: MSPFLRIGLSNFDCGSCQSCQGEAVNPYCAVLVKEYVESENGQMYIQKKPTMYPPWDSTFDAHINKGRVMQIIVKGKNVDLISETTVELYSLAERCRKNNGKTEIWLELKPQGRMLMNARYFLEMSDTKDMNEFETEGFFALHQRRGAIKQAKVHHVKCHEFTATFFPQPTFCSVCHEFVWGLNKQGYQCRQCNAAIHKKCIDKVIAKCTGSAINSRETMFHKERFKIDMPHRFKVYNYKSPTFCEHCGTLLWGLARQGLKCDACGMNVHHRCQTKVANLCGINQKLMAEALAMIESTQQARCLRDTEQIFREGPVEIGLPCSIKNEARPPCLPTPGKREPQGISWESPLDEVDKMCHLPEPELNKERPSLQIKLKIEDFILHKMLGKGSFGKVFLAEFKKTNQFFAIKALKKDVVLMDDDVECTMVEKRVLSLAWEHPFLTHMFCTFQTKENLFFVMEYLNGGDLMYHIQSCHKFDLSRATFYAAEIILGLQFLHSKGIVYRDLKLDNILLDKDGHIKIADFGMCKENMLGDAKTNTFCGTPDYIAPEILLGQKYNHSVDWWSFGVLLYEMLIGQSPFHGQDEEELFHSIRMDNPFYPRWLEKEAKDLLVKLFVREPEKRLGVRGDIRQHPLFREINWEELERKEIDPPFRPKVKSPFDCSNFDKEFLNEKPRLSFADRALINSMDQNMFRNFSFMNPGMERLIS
UniProt Q99873, whole entry, looked up: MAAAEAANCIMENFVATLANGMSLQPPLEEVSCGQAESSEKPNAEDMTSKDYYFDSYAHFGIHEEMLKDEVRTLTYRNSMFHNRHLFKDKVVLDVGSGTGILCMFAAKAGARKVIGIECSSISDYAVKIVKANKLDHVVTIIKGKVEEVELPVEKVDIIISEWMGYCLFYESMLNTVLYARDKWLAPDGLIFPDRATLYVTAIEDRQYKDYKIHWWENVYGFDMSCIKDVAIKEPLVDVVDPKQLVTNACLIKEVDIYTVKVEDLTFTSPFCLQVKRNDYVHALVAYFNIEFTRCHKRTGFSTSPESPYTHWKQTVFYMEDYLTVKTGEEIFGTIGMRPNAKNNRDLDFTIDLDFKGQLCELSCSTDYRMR
UniProt P10644, whole entry, looked up: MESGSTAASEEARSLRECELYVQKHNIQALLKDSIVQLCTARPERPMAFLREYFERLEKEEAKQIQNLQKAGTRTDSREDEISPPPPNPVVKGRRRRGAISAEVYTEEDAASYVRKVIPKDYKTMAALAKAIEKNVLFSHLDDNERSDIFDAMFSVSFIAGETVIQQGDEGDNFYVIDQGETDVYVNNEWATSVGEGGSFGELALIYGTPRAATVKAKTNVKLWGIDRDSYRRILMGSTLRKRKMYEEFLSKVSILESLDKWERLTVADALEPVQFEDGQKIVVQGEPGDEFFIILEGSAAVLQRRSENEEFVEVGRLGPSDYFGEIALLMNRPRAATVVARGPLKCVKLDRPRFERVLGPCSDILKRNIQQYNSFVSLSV
UniProt P60891: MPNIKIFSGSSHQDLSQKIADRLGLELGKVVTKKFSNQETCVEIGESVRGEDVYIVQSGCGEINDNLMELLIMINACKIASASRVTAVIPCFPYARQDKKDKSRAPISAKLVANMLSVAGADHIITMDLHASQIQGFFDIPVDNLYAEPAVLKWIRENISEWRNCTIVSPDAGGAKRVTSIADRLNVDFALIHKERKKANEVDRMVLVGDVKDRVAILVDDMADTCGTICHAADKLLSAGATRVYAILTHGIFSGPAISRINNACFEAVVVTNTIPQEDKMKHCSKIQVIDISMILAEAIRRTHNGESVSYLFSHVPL
UniProt Q05655: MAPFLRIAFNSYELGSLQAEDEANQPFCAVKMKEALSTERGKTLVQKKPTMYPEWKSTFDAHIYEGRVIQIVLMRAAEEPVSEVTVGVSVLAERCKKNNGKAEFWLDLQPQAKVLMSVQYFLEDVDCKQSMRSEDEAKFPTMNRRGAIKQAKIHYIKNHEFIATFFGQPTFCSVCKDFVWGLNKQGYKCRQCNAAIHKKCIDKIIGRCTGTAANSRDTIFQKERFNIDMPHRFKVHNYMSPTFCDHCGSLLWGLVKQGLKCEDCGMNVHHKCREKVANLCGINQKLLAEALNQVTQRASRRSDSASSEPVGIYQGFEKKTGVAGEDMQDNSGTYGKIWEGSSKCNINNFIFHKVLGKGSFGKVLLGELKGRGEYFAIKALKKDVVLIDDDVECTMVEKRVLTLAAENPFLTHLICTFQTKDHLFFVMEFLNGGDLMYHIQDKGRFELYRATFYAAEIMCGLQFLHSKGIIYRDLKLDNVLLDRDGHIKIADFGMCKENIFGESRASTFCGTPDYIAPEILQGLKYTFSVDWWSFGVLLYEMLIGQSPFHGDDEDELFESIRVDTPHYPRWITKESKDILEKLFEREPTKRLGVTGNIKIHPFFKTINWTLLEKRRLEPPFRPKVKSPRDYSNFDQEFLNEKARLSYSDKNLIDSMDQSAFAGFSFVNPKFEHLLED
UniProt O75475: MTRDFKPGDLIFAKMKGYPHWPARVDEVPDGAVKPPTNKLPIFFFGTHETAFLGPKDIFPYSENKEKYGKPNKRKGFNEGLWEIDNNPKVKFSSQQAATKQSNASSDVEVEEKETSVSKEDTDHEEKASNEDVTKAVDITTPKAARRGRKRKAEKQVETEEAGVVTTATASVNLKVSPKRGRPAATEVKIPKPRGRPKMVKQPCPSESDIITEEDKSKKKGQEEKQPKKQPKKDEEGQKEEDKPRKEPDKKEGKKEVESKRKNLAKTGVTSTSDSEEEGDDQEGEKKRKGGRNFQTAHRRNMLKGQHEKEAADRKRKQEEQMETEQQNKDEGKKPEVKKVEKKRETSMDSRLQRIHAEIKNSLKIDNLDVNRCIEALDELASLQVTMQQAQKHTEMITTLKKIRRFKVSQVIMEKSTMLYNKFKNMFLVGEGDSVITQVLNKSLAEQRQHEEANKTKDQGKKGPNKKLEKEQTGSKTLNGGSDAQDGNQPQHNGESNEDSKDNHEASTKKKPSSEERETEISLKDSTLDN
UniProt Q13523: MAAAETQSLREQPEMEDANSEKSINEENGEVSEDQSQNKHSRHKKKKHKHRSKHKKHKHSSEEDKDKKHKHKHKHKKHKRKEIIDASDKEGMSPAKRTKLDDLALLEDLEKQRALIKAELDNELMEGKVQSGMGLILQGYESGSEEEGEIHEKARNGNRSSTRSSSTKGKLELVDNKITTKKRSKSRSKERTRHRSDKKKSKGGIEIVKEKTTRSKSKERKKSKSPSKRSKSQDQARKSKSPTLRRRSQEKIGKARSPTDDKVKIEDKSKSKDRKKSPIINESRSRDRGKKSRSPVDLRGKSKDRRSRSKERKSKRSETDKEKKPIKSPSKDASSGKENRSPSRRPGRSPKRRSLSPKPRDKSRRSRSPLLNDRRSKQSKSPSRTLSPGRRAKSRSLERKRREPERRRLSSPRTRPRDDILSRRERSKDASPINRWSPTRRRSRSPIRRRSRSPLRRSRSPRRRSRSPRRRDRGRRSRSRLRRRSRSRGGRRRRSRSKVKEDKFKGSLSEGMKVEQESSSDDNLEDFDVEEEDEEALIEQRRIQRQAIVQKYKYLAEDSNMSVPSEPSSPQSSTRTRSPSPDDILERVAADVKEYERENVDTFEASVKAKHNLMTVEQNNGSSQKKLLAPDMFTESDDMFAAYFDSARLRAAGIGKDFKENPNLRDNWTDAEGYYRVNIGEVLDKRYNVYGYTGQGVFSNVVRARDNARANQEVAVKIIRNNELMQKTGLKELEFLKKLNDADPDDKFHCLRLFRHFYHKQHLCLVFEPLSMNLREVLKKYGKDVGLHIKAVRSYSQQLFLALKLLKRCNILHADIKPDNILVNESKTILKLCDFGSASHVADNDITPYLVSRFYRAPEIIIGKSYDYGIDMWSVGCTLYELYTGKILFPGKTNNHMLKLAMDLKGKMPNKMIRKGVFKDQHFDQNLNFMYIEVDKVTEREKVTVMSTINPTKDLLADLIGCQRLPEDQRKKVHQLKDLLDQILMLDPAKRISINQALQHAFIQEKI

Compound: Cc1cc(ccc1-c1ccccc1)C(=O)N1CCCN(CC1)C(=O)CCl [compound 10]
Assay: probe-labelled cysteine peptide fold change vs DMSO (competition) (log2 fold change); higher = less target engagement (more negative = stronger competition)
Conditions: THP-1, incubation time: 4 h
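Note: competitive profiling in live THP-1 cells: cysteine peptides tagged with an iodoacetamide desthiobiotin (IA-DTB) probe, intensity after compound treatment relative to DMSO-treated cells.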

Row | Target | probe-labelled cysteine peptide fold change (10 µM) | probe-labelled cysteine peptide fold change (50 µM)
1 | PRKDC_P78527_3781_VEQLFQVMNGILAQDSACSQR (UniProt P78527) | 0.0493 | -0.0398
2 | PRMT9_Q6P2P2_206_AGAHSVYACELSK (UniProt Q6P2P2) | -0.229 | 0.391
3 | PRMT5_O14744_22_DLNCVPEIADTLGAVAK (UniProt O14744) | -0.0753 | 0.0621
4 | PRKCA_P17252_132_CDTCDMNVHK (UniProt P17252) | -0.00159 | -0.156
5 | PRRC2B_Q5JSZ5_819_AQADFDSCISSQR (UniProt Q5JSZ5) | -0.314 | -0.048
6 | PRKDC_P78527_3014_SLEYCSTASIDSENPPDLNK (UniProt P78527) | -0.149 | 0.00293
7 | PRKCB_P05771_151_CVMNVPSLCGTDHTER (UniProt P05771) | -0.0318 | -0.00516
8 | PRMT7_Q9NVM4_571_EAEPHPLWEYPCR (UniProt Q9NVM4) | -0.0578 | -0.261
9 | PRKRA_O75569_77_VTVGDITCTGEGTSKK (UniProt O75569) | 0.141 | -0.288
10 | PRKCQ_Q04759_193_QCNAAIHKK (UniProt Q04759) | -0.575 | -0.964
11 | PRKCQ_Q04759_281_VANLCGINQK (UniProt Q04759) | -0.607 | -0.997
12 | PRMT1_Q99873_119_VIGIECSSISDYAVK (UniProt Q99873) | 0.0641 | 0.0335
13 | PRKAR1A_P10644_39_DSIVQLCTARPERPMAFLR (UniProt P10644) | -0.0353 | -0.242
14 | PRKDC_P78527_3683_ECSPWMSDFK (UniProt P78527) | 0.0132 | 0.0914
15 | PRKCI_P41743_157_AHCAICTDR (UniProt P41743) | 0.104 | 0.311
16 | PRPF4_O43172_237_SLNNFCSQIGDDRPISYCHFSPNSK (UniProt O43172) | 0.0328 | -0.157
17 | PRKCB_P05771_143+151_CVMNVPSLCGTDHTER (UniProt P05771) | -0.0695 | 0.316
18 | PRMT1_Q99873_103_DKVVLDVGSGTGILCMFAAK (UniProt Q99873) | -0.168 | -0.709
19 | PRKDC_P78527_630_DFSAFINLVEFCR (UniProt P78527) | 0.137 | 0.157
20 | PRPS2_P11908_230_VAILVDDMADTCGTICHAADK (UniProt P11908) | 0.358 | -0.372
21 | PRPS1_P60891_41_FSNQETCVEIGESVR (UniProt P60891) | 0.0317 | 0.195

Reformatted as comma-separated lines: entries from further up.
Row,Target,probe-labelled cysteine peptide fold change (10 µM),probe-labelled cysteine peptide fold change (50 µM)
9,PRKRA_O75569_77_VTVGDITCTGEGTSKK (UniProt O75569),0.141,-0.288
10,PRKCQ_Q04759_193_QCNAAIHKK (UniProt Q04759),-0.575,-0.964
11,PRKCQ_Q04759_281_VANLCGINQK (UniProt Q04759),-0.607,-0.997
12,PRMT1_Q99873_119_VIGIECSSISDYAVK (UniProt Q99873),0.0641,0.0335

Following part:

Row | Target | probe-labelled cysteine peptide fold change (10 µM) | probe-labelled cysteine peptide fold change (50 µM)
22 | PRRC2C_Q9Y520_2340_STTTSDPPNICK (UniProt Q9Y520) | -0.229 | -0.462
23 | PRKDC_P78527_3683_ECSPWMSDFKVEFLRNELEIPGQYDGR (UniProt P78527) | -0.553 | -0.67
24 | PRKRA_O75569_77_VTVGDITCTGEGTSK (UniProt O75569) | 0.0514 | -0.138
25 | PRKCD_Q05655_261+264_CEDCGMNVHHK (UniProt Q05655) | -0.702 | -1.69
26 | PRKAR1A_P10644_362_VLGPCSDILKR (UniProt P10644) | -0.21 | -0.196
27 | PRKDC_P78527_1176_WLLAHCGRPQTECR (UniProt P78527) | -0.119 | 0.102
28 | PRKCD_Q05655_459_ATFYAAEIMCGLQFLHSK (UniProt Q05655) | -0.178 | 0.369
29 | PSIP1_O75475_373_CIEALDELASLQVTMQQAQK (UniProt O75475) | 0.338 | 0.384
30 | PRPF6_O94906_913_HGELWCAVSK (UniProt O94906) | -0.0869 | 0.197
31 | PRPF4B_Q13523_962_DLLADLIGCQR (UniProt Q13523) | -0.126 | -0.222
32 | PRKCB_P05771_78_CHEFVTFSCPGADK (UniProt P05771) | 0.0418 | 0.28
33 | PRKDC_P78527_2363_FIVCLNK (UniProt P78527) | 0.0215 | -0.0417
34 | PRKDC_P78527_2342_KNILEESLCELVAK (UniProt P78527) | -0.182 | -0.0562
35 | PRMT6_Q96LA8_100_TVLDVGAGTGILSIFCAQAGAR (UniProt Q96LA8) | 0.377 | 0.339
36 | PRKCA_P17252_132+135_CDTCDMNVHK (UniProt P17252) | -0.182 | -0.425
37 | PRKDC_P78527_1791_RGSCVTQVGLLESVYEMFRK (UniProt P78527) | -0.174 | -0.301
38 | PRPS1_P60891_165_NCTIVSPDAGGAK (UniProt P60891) | 0.0905 | 0.0728
39 | PRKCB_P05771_409_VLALPGKPPFLTQLHSCFQTMDR (UniProt P05771) | -0.0204 | 0.372
40 | PRKAR1A_P10644_362_VLGPCSDILK (UniProt P10644) | -0.272 | 0.19
41 | PRKDC_P78527_2093_EQRDPTVHDDVLELEMDELNRHECMAPLTALVK (UniProt P78527) | -0.163 | -0.293
